Calls as published in the ROBIN set (doi:10.1002/anie.202211358).

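The test is a small-molecule microarray: each compound is printed twice on a reactive slide, and binding shows as fluorescence of the labelled oligonucleotide after washing. For the PreQ1, TPP and SAM-II riboswitches the laboratory earlier reported (doi:10.1038/s41467-019-09493-3) 1 µM RNA, 2 h, and a rule that included a mean Z-score above 3 (spot signal-to-noise against the whole library), a score well above that on a control array, and duplicate spots agreeing (coefficient of variation under 100). The data file gives only the calls; its cut-offs may differ, and compounds hitting several targets are kept. The calls come from the array alone, and fixing a compound to the slide can hide its binding.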 Key: hit = hit, none = tested without a hit. The compounds are a random part of those screened. A target missing from an entry has no call listed here. A dash means that no call is listed here.

Targets (5′ to 3′):
SAM-II: SAM-II riboswitch RNA pseudoknot, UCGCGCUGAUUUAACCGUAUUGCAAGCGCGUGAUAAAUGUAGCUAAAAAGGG. About 200 hits among about 21,000 compounds.
TPP: TPP riboswitch RNA three-way junction, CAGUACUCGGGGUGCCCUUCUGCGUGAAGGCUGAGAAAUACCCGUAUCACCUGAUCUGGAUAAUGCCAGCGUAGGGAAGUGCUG. About 160 hits among about 24,000 compounds.
PreQ1: PreQ1 riboswitch RNA pseudoknot, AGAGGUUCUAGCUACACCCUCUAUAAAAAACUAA. From B. subtilis. About 170 hits among about 24,000 compounds.

structure,SAM-II,TPP,PreQ1
COc1ccc(NCc2nc3nc(C)c(Cl)c(C)n3n2)cc1,-,none,none
C=CCn1c(=N)n(CC(O)c2ccc(C)cc2)c2ccccc21 (centres undefined),none,none,none
CCc1n(CC(O)COc2cccc(OC)c2)c2ccccc2[n+]1C (centres undefined),none,none,none
NNc1nc(N)c2c(n1)-c1ccccc1CC21CCCCC1,none,hit,none
Cc1nc(-c2cc3cccc(C)c3nc2NCc2ccco2)no1,-,none,none
Cc1nc(Nc2ccc(F)cc2)nc(Nc2ccc(F)cc2)c1[N+](=O)[O-],none,none,none
O=C(c1cc(F)ccc1-n1cnnn1)N1CCNCC1,none,none,none
Cc1cc(N2CCOCC2)cc2c1NC(=C1C(=O)N=CC=C1NC[C@@H](O)c1cccc(Cl)c1)N2,none,none,none
CN(CCO)C[C@@H]1CN(c2ncc(Cl)cc2C(F)(F)F)C[C@@H]1CO,none,none,none
COc1cccc(NC2C=CS(=O)(=O)C2)c1 (centres undefined),none,none,none
COCc1cc(C(=O)N2CC[C@@H](c3sccc3C)[C@H](O)C2)ccc1OC,none,none,none
O=C1c2[nH]nc(-c3ccccc3O)c2C(c2cccc(OCc3ccccc3)c2)N1CCO (centres undefined),-,none,none
COc1cc(N)ccc1Cc1ccc(N)cc1OC,none,none,none
CCC(CO)N(Cc1ccccc1C)Cc1ccccc1C(=O)O (centres undefined),none,none,none

Repeated from the top, 2 entries:

* COc1ccc(NCc2nc3nc(C)c(Cl)c(C)n3n2)cc1 : TPP: none; PreQ1: none
* C=CCn1c(=N)n(CC(O)c2ccc(C)cc2)c2ccccc21 (centres undefined) : SAM-II: none; TPP: none; PreQ1: none